Assay results as given in the supplement of paper PMC4604168 (melanoma cell lines).
The other results are listed elsewhere or left out. Repeats are few or missing, and single values can be far off.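 The apoptosis fraction was the count of cleaved-PARP antibody-stained nuclei relative to all DNA-stained nuclei, imaged in 1,536-well plates. Screening doses were set so most cells survived, and baseline and induced cleaved-PARP levels vary greatly across cell lines.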

System: RVH-421
Experiment: cleaved PARP positive nuclei fraction relative to DMSO control; melanoma cells; higher = more apoptosis
Settings: library dose: low library concentration; 72 h

Compared with `CN1CCN(c2ccc3nc(-c4c(N)c5c(F)cccc5[nH]c4=O)[nH]c3c2)CC1` [Dovitinib] + COc1cc2c(Oc3ccc4[nH]c(C)cc4c3F)ncnc2cc1OCCCN1CCCC1 [cediranib] (first compound 0.1 µM, partner dose 0.4 µM), `Cn1c(=O)n(-c2ccc(C(C)(C)C#N)cc2)c2c3cc(-c4cnc5ccccc5c4)ccc3ncc21` + OCCn1cc(-c2cnc3nnn(Cc4ccc5ncccc5c4)c3n2)cn1 [PF04217903] (first compound 0.004 µM, partner dose 1 µM) is higher in “cleaved PARP positive nuclei fraction” value: 75.4% for the first, 93.1% for the second.

Going from `CC(C)C[C@H](NC(=O)[C@H](Cc1ccccc1)NC(=O)c1cnccn1)B(O)O` [Bortezomib] + CC(C)CCN1c2nc(Nc3cc(F)c(O)c(F)c3)ncc2N(C)C(=O)C1C [BID1870] (first compound 0.001 µM, partner dose 0.2 µM) to `O=C(O)c1ccc2c(c1)nc(Nc1cccc(Cl)c1)c1ccncc12` + NCC(=O)Nc1ccc(-n2nc(C(F)(F)F)cc2-c2ccc3c(ccc4ccccc43)c2)cc1 [OSU03012] (first compound 0.4 µM, partner dose 1 µM), the “cleaved PARP positive nuclei fraction” value rises from 157% to 167%.

Compared with `Nc1ncn([C@H]2C[C@H](O)[C@@H](CO)O2)c(=O)n1` [decitabine] + Cn1cc(/C=C2\C(=O)Nc3cccnc32)c2ccccc21 [GW441756] (first compound 0.1 µM, partner dose 0.4 µM), `CC(C)C[C@H](NC(=O)[C@H](Cc1ccccc1)NC(=O)c1cnccn1)B(O)O` [Bortezomib] + O=c1cc(-c2cccc3c2Sc2ccccc2S3)oc(N2CCOCC2)c1 [KU55933] (first compound 0.001 µM, partner dose 1 µM) is lower in “cleaved PARP positive nuclei fraction” value: 210% for the first, 133% for the second.

Going from `CNC(=O)c1cc(Oc2ccc(NC(=O)Nc3ccc(Cl)c(C(F)(F)F)c3)cc2)ccn1` [sorafenib] + Oc1nc(-c2ccc(C(F)(F)F)cc2)nc2c1CSCC2 [XAV939] (first compound 0.4 µM, partner dose 2 µM) to `O=C(O)c1ccc2c(c1)nc(Nc1cccc(Cl)c1)c1ccncc12` + COc1ccc(-c2ccc3c(N4CCOCC4)nc(N4C[C@@H](C)O[C@@H](C)C4)nc3n2)cc1CO [KU0063794] (first compound 0.4 µM, partner dose 0.02 µM), the “cleaved PARP positive nuclei fraction” value rises from 71.8% to 93.6%.

Compared with `O=C(O)[C@@H]1[O][Sb](=[O])([O][Sb]2(=[O])[O][C@H]([C@H](O)CO)[C@H](O)[C@H](C(=O)O)[O]2)[O][C@H]([C@H](O)CO)[C@@H]1O` (stereo not given in full) [stibogluconate] + C=CCn1c(=O)c2cnc(Nc3ccc(N4CCN(C)CC4)cc3)nc2n1-c1cccc(C(C)(C)O)n1 [MK1775] (first compound 2 µM, partner dose 0.02 µM), `Cn1c(=O)n(-c2ccc(C(C)(C)C#N)cc2)c2c3cc(-c4cnc5ccccc5c4)ccc3ncc21` + c1cc(-c2cnn3cc(-c4ccc(OCCN5CCCCC5)cc4)cnc23)ccn1 [Dorsomorphin] (first compound 0.004 µM, partner dose 0.4 µM) is lower in “cleaved PARP positive nuclei fraction” value: 50.4% for the first, 30.3% for the second.

System: SkMel28
Experiment: as above
Settings: library dose: low library concentration; 72 h

First: O=C(O)[C@@H]1[O][Sb](=[O])([O][Sb]2(=[O])[O][C@H]([C@H](O)CO)[C@H](O)[C@H](C(=O)O)[O]2)[O][C@H]([C@H](O)CO)[C@@H]1O (stereo not given in full) [stibogluconate] + OCCn1cc(-c2cnc3nnn(Cc4ccc5ncccc5c4)c3n2)cn1 [PF04217903] (first compound 2 µM, partner dose 1 µM)
Second: Nc1nc(F)nc2c1ncn2[C@@H]1O[C@H](CO)[C@@H](O)[C@@H]1O [fludarabine] + CO[C@@H]1[C@H](N(C)C(=O)c2ccccc2)C[C@H]2O[C@]1(C)n1c3ccccc3c3c4c(c5c6ccccc6n2c5c31)C(=O)NC4 [Midostaurin] (first compound 0.2 µM, partner dose 0.08 µM)
The “cleaved PARP positive nuclei fraction” value of the first is lower: 28.5% for the first, 57.8% for the second.

Compared with `C[C@@H](Oc1cc(-c2cnn(C3CCNCC3)c2)cnc1N)c1c(Cl)ccc(F)c1Cl` [Crizotinib] + Oc1cc(-c2nc(-c3ccccc3)[nH]c2-c2ccncc2)ccc1Cl [L779450] (first compound 0.2 µM, partner dose 0.2 µM), `CCCS(=O)(=O)Nc1ccc(F)c(C(=O)c2c[nH]c3ncc(Cl)cc23)c1F` + COc1cc2ncnc(Nc3ccc(Oc4ccccc4)cc3)c2cc1OC [SrcI1] (first compound 0.08 µM, partner dose 2 µM) is lower in “cleaved PARP positive nuclei fraction” value: 203% for the first, 101% for the second.

Going from `C[C@@H](Oc1cc(-c2cnn(C3CCNCC3)c2)cnc1N)c1c(Cl)ccc(F)c1Cl` [Crizotinib] + CCCCCCCCCCCC1=C(O)C(=O)C=C(O)C1=O [Embelin] (first compound 0.2 µM, partner dose 1.2 µM) to `CN1CCN(c2ccc3nc(-c4c(N)c5c(F)cccc5[nH]c4=O)[nH]c3c2)CC1` [Dovitinib] + Oc1cc(-c2nc(-c3ccccc3)[nH]c2-c2ccncc2)ccc1Cl [L779450] (first compound 0.1 µM, partner dose 0.2 µM), the “cleaved PARP positive nuclei fraction” value rises from 118% to 181%.

Going from `Nc1ncn([C@H]2C[C@H](O)[C@@H](CO)O2)c(=O)n1` [decitabine] + O=C(Nc1ccccc1)c1cc([N+](=O)[O-])ccc1Cl [GW9662] (first compound 0.1 µM, partner dose 2 µM) to `Nc1ccn([C@@H]2O[C@H](CO)[C@@H](O)C2(F)F)c(=O)n1` [gemcitabine] + C=CCn1c(=O)c2cnc(Nc3ccc(N4CCN(C)CC4)cc3)nc2n1-c1cccc(C(C)(C)O)n1 [MK1775] (first compound 0.0004 µM, partner dose 0.02 µM), the “cleaved PARP positive nuclei fraction” value falls from 50.6% to 41.6%.

Going from `C[C@@H](Oc1cc(-c2cnn(C3CCNCC3)c2)cnc1N)c1c(Cl)ccc(F)c1Cl` [Crizotinib] + O=c1cc(-c2cccc3c2Sc2ccccc2S3)oc(N2CCOCC2)c1 [KU55933] (first compound 0.2 µM, partner dose 1 µM) to `Cc1cc(Nc2cc(N3CCN(C)CC3)nc(/C=C/c3ccccc3)n2)n[nH]1` + N#Cc1c(O)c2c(-c3ccc(-c4ccccc4O)cc3)csc2[nH]c1=O [A769662] (first compound 0.04 µM, partner dose 2 µM), the “cleaved PARP positive nuclei fraction” value rises from 64.1% to 184%.

Compared with `CS(=O)(=O)CCNCc1ccc(-c2ccc3ncnc(Nc4ccc(OCc5cccc(F)c5)c(Cl)c4)c3c2)o1` [lapatinib] + OCCn1cc(-c2cnc3nnn(Cc4ccc5ncccc5c4)c3n2)cn1 [PF04217903] (first compound 0.8 µM, partner dose 1 µM), `CNC(=O)c1cc(Oc2ccc(NC(=O)Nc3ccc(Cl)c(C(F)(F)F)c3)cc2)ccn1` [sorafenib] + O=C(O)c1ccc(-c2c[nH]c3ncc(-c4ccccc4)cc23)cc1C1CCCC1 [GSK650394] (first compound 0.4 µM, partner dose 0.16 µM) is lower in “cleaved PARP positive nuclei fraction” value: 91.8% for the first, 37.1% for the second.

Going from `Nc1ncn([C@H]2C[C@H](O)[C@@H](CO)O2)c(=O)n1` [decitabine] + O=C(O)c1ccc(-c2c[nH]c3ncc(-c4ccccc4)cc23)cc1C1CCCC1 [GSK650394] (first compound 0.1 µM, partner dose 0.16 µM) to `Nc1nc(F)nc2c1ncn2[C@@H]1O[C@H](CO)[C@@H](O)[C@@H]1O` [fludarabine] + NCC(=O)Nc1ccc(-n2nc(C(F)(F)F)cc2-c2ccc3c(ccc4ccccc43)c2)cc1 [OSU03012] (first compound 0.2 µM, partner dose 1 µM), the “cleaved PARP positive nuclei fraction” value falls from 99.8% to 40.8%.

Going from `CS(=O)(=O)CCNCc1ccc(-c2ccc3ncnc(Nc4ccc(OCc5cccc(F)c5)c(Cl)c4)c3c2)o1` [lapatinib] + O=S(=O)(c1ccccc1)N(CC(F)(F)F)c1ccc(C(O)(C(F)(F)F)C(F)(F)F)cc1 [T0901317] (first compound 0.8 µM, partner dose 1.4 µM) to `CNC(=O)c1cc(Oc2ccc(NC(=O)Nc3ccc(Cl)c(C(F)(F)F)c3)cc2)ccn1` [sorafenib] + COc1cc2c(Oc3ccc4[nH]c(C)cc4c3F)ncnc2cc1OCCCN1CCCC1 [cediranib] (first compound 0.4 µM, partner dose 0.4 µM), the “cleaved PARP positive nuclei fraction” value rises from 94.4% to 128%.

Compared with `CC(C)C[C@H](NC(=O)[C@H](Cc1ccccc1)NC(=O)c1cnccn1)B(O)O` [Bortezomib] + NC(=O)Nc1cc(-c2cccc(F)c2)sc1C(=O)N[C@H]1CCCNC1 [AZD7762] (first compound 0.001 µM, partner dose 0.02 µM), `CNC(=O)c1cc(Oc2ccc(NC(=O)Nc3ccc(Cl)c(C(F)(F)F)c3)cc2)ccn1` [sorafenib] + Cc1ccc(NC(=O)c2cccc(N(C)C)c2)cc1NC(=O)c1ccc(O)cc1 [ZM336372] (first compound 0.4 µM, partner dose 2 µM) is lower in “cleaved PARP positive nuclei fraction” value: 56.1% for the first, 38.3% for the second.

For `CC(C)C[C@H](NC(=O)[C@H](Cc1ccccc1)NC(=O)c1cnccn1)B(O)O` [Bortezomib] + COc1cc2c(Oc3ccc4[nH]c(C)cc4c3F)ncnc2cc1OCCCN1CCCC1 [cediranib] (first compound 0.001 µM, partner dose 0.4 µM), the “cleaved PARP positive nuclei fraction” value was 59.1%.
With `CC(C)C[C@H](NC(=O)[C@H](Cc1ccccc1)NC(=O)c1cnccn1)B(O)O` [Bortezomib] + C[C@@H]1CCN(C(=O)CC#N)C[C@@H]1N(C)c1ncnc2[nH]ccc12 [CP690550] (first compound 0.001 µM, partner dose 1 µM) the “cleaved PARP positive nuclei fraction” value was 81.3%.
